42 sequences from paper PMC7819943, “Rice protein-binding microarrays: a tool to detect cis-acting elements near promoter regions in rice” can be followed below.

Protein sequences, listed by entry. Tags and fused reporters are not part of them.
UniProt Q0JBA9, entry or part of it: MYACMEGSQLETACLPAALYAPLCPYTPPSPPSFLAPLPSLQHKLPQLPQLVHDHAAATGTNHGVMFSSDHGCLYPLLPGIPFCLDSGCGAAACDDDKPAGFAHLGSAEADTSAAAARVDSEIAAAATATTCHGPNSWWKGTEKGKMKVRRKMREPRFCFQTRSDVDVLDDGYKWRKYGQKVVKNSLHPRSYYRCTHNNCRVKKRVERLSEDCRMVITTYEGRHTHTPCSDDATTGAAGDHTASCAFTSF

This is one part of the list.

This assay concerns the target OsWRKY34 (Oryza sativa, UniProt Q0JBA9 1-250). The experiment in a line: protein-binding microarray (RPBM); PBS, 2% BSA, 51.3 ng/ul salmon testes DNA, 50 uM zinc acetate, 200 nM TF, 25 C, 1 h; high values mean tight binding. As to conditions: protein: recombinant; tags: N-terminal polyhistidine and DsRed monomer fusion (pET32a); label: CyDye5-dUTP incorporated in the synthesized complementary strand; 3' TTTTT single-stranded linker to array surface; dsDNA, one strand shown. In outline: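 Using Ni–NTA, transcription factors fused N-terminally to polyhistidine and DsRed were purified after expression in E. coli BL21-CodonPlus. These were incubated at 200 nM with a blocked, double-stranded custom Agilent array for 1 h at 25 °C in a buffer containing 50 µM zinc acetate, and the array was washed. The binding signal is per-feature fluorescence intensity (arbitrary units) on an Axon 4000B scanner.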
For “TGACAAAACCGATGACCTCTGCTATTTGGACCGAAGCAAACGGAGTCACCTAGTGCAG”, the binding signal is 8960 fluorescence intensity (a.u.).
The same measure for “TGCCTTCTGATTCTGGATCCCTGATGTTATATGTGTGCACCGGAGTCACCTAGTGCAG”: 9310 fluorescence intensity (a.u.); for “CTTTCCTACACACATAAACTTTCAATTTTTCCGTCGCATCCGGAGTCACCTAGTGCAG”: 8490 fluorescence intensity (a.u.); for “ACCTGCTGCATTCCTTCTGTTGATTTTGATTCGCTCAACCCGGAGTCACCTAGTGCAG”: 8460 fluorescence intensity (a.u.).
The same measure for “TTTTCTATCACATCAAAATTTTCCTAGGCTGTGTTTAGTTCGGAGTCACCTAGTGCAG”: 8550 fluorescence intensity (a.u.).
Then “GCATACTCGCTCCATTTCATATACTTTTTTTTAGTTTAACCGGAGTCACCTAGTGCAG”, with 9420 fluorescence intensity (a.u.); and “GTACTGTCATAATATCATAAACTTATACACATATACAGATCGGAGTCACCTAGTGCAG”, with 8580 fluorescence intensity (a.u.); and “GTTTTGTGTACTTCTTCCGTCCTAAAATATAGCAACTTTTCGGAGTCACCTAGTGCAG”, with 11900 fluorescence intensity (a.u.).
Turning to “TGACCACACATTGCATCCGTCACCACCTTCTTCTAATTAACGGAGTCACCTAGTGCAG”, the binding signal is 9320 fluorescence intensity (a.u.).
Then “CGGCTAAACTCCCACGTGAACCAGACGCTGCACCAAAAACCGGAGTCACCTAGTGCAG”, with 8430 fluorescence intensity (a.u.); and “CCACTTTAGATCCCAAATTATATATGGTCGAGTTCTTTTCCGGAGTCACCTAGTGCAG”, with 9470 fluorescence intensity (a.u.).
Consider “ATTGCTCTTCTGCACCATCAGCATCTCCTGCACCGCCGCGCGGAGTCACCTAGTGCAG”, for which the binding signal was 8340 fluorescence intensity (a.u.).
The same measure for “TCACGTATAGCCAGCGACAATATAAGCGTTCATTCACACTCGGAGTCACCTAGTGCAG”: 8060 fluorescence intensity (a.u.); for “CATTGGTTACTCGCTAGTAGTTTAATTTTTTTTTCCGGAACGGAGTCACCTAGTGCAG”: 8470 fluorescence intensity (a.u.); for “CTGTCACTCACTCACTCACCCGTTATTACATGGTTACAACCGGAGTCACCTAGTGCAG”: 9950 fluorescence intensity (a.u.).
The same measure for “AACCAGCACCGATGTCGATTTCTGTAGTTCCCTTTGTTAACGGAGTCACCTAGTGCAG”: 9960 fluorescence intensity (a.u.).
With “TTTTGCCATATTTGTCACATCTGTTCACGCTGGATTTAAACGGAGTCACCTAGTGCAG”, the binding signal is 10100 fluorescence intensity (a.u.).
On to “GATCCCCTTGCCTATGACTTTTGTAAATTTGAAAATTGTTCGGAGTCACCTAGTGCAG”, for which the binding signal was 8040 fluorescence intensity (a.u.).
In the case of “TCGTACATACTTGCGTTTCTGCTTTCGACTTGTCGCCTCACGGAGTCACCTAGTGCAG”, the binding signal is 8540 fluorescence intensity (a.u.).
Then “CTTGCATTGATGTCGTTTGACCCTATTGACCTCACTGGAGCGGAGTCACCTAGTGCAG”, with 9880 fluorescence intensity (a.u.); and “GCCTCGCACAGTCGCGTTCCACGAATGCTCACGCGCGCGCCGGAGTCACCTAGTGCAG”, with 8820 fluorescence intensity (a.u.); and “TCTAGTTACTACTTATCACATTCATCTCTTTTCATTCAAACGGAGTCACCTAGTGCAG”, with 10000 fluorescence intensity (a.u.).
The same measure for “ATGAAACTCTTTCCTTCTCTCTCATCCCCATTTCATGCAACGGAGTCACCTAGTGCAG”: 9740 fluorescence intensity (a.u.); for “TTGCACATCCACGCACTTTGGCCGCTTCTCCTCTACTACTCGGAGTCACCTAGTGCAG”: 11200 fluorescence intensity (a.u.); for “GGCATACTACACCTACTCTATACAATTAAATGGTACTGTGCGGAGTCACCTAGTGCAG”: 8230 fluorescence intensity (a.u.).
Then “CCACCCTCTCGATCCCCTGTGTGCCGCCACTGACCACCGACGGAGTCACCTAGTGCAG”, with 8180 fluorescence intensity (a.u.); and “AGGTGGTTGGTGAGGTTTGCTTTGCACGATCGAGTGAGGACGGAGTCACCTAGTGCAG”, with 10500 fluorescence intensity (a.u.); and “CCACCTCGATCTGTGCCGCCGTTGTTAGGGGCAGGGGCGGCGGAGTCACCTAGTGCAG”, with 10100 fluorescence intensity (a.u.).
With “TGGTGTAGTGTGCCAATATTCTTTGCGACCTCCCAGTCAACGGAGTCACCTAGTGCAG”, the binding signal is 9290 fluorescence intensity (a.u.).
The same measure for “GCCCTATTCCATCGCTCAGTTGGCTCACCCTCTTCGACGACGGAGTCACCTAGTGCAG”: 8450 fluorescence intensity (a.u.); for “GATAGAGTTGGGTAGTGGTGGTCAGATCTTATTCGTATATCGGAGTCACCTAGTGCAG”: 8040 fluorescence intensity (a.u.).
Then “TTGGTACTGGTGATACTCGCCATTTTTTCTGTATTCCATGCGGAGTCACCTAGTGCAG”, with 11900 fluorescence intensity (a.u.); and “CACCACGTCCCATCCCGTCGCGTCGCCGCACATTCACCCCCGGAGTCACCTAGTGCAG”, with 9490 fluorescence intensity (a.u.); and “GAGCTTTTCATCCAGCCCTAGTCATGCCGCACTCCACAACCGGAGTCACCTAGTGCAG”, with 8320 fluorescence intensity (a.u.).
On to “CAGTTTTTGCTTGCAACGTTTGACCACTCGTCTTATTTAACGGAGTCACCTAGTGCAG”, for which the binding signal was 8910 fluorescence intensity (a.u.).
As to “GCAAGAGAGAGATGACCGCCGCCGCCCGCCGTACTTTACACGGAGTCACCTAGTGCAG”, the binding signal was 8170 fluorescence intensity (a.u.).
Then “CGCCGACCGGTACACCGCCCATGTGCCACAGCCCGCCCGCCGGAGTCACCTAGTGCAG”, with 8510 fluorescence intensity (a.u.).
Then “CTCTCTTCTTCTTCCTCGCTTTGCTTGGGTTGGGTTGGAGCGGAGTCACCTAGTGCAG”, with 14800 fluorescence intensity (a.u.).
Consider “CATACTGGCCAAGATATGGTTTGGTTTGTTTATTTGATGTCGGAGTCACCTAGTGCAG”, for which the binding signal is 8690 fluorescence intensity (a.u.).
Then “AGCTCGCTCGCTCTGGAAAGCATGCTTATGTCCATCACTACGGAGTCACCTAGTGCAG”, with 8100 fluorescence intensity (a.u.).
With “GTGTGAATTGTGGGTGTCATCCAATGGGTGGAGGGGTTGCCGGAGTCACCTAGTGCAG”, the binding signal is 11400 fluorescence intensity (a.u.).
Then “CCACCAGAGTCCACGAGTCATGACCACACATTGCATCCGTCGGAGTCACCTAGTGCAG”, with 9990 fluorescence intensity (a.u.).
